Here are results for 53 molecules from PubChem BioAssay AID1458 (National Center for Advancing Translational Sciences (NCATS), 2008).

Out of some 210,000 compounds screened, about 5,900 (2.8%) were called active. Roughly 5% stayed inconclusive and do not appear here. Calls follow the shape of the dose curve; as a rule, active = well fitted activation curve with a large enough effect; inconclusive = small, poorly fitted or top-dose-only effect; inactive = no such curve, though single readings can be large or run the other way. The entries are a selection whose mix differs from that of the whole data set. Entries without a call were filed so in the source.
Potency is read from the fitted curve at half-maximal effect.

The assay can be described thus: qHTS Assay for Enhancers of SMN2 Splice Variant Expression. Also: nearly all actives have a fitted effect of over 55% in size. As to activity change, positive = activation: % of control where 0% means no effect. Conditions: HEK293 SMN2-luciferase splicing reporter, luminescence, 30-36 h; activity change, positive = activation: at 46.1 µM (top of the series) unless noted. In short, it runs like this: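 HEK293 cells carry an SMN2 […]–luciferase reporter in which exon 7 inclusion puts luciferase in frame. Cells were plated 10-12 h before compound addition, then incubated 30-36 h at 37C. ONE-Glo luminescence was read; sodium butyrate at 4.5 mM final served as control.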
(In general: In qHTS, concentration-response curves come from the screen itself.)
Consider `CN(C)/N=N\c1nc[nH]c1C(N)=O`, for which the “activity change, positive = activation” value was inactive: -15.7% [at 20.6 µM]. For `Cc1cc(C(=O)CSc2nnnn2-c2ccc(O)cc2)c(C)n1Cc1ccc2c(c1)OCO2`, the “activity change, positive = activation” value is inactive: -38.1%.

For the molecule `COc1cccc(NC(=O)/C=C/c2ccccc2[N+](=O)[O-])c1`, the Potency was active: 3.16 µM. Turning to `CCCCC1=CC2=CC(=O)C(C)(OC(=O)CC)C(=O)C2=CN1CCN1CCOCC1` (stereo not drawn), the activity change, positive = activation was 33.3% [at 9.22 µM]. Still for that read-out and setting: with `Cc1cc(C(=O)Nc2ccc(C(=O)O)cc2)c(-c2ccccc2)o1` the figure was 43.6%; with `Cc1ccc(C)c(-c2ccc(=O)n(Cc3c(F)cccc3Cl)n2)c1`, -77.6%; with `O=c1c(-c2ccccc2)c[nH]n1-c1cccc([N+](=O)[O-])c1`, 145%. As to `Fc1ccc(C2=Nn3c(nnc3-c3n[nH]c4c3CCC4)SC2)cc1`, the Potency was active: 20 µM. For `CC(C)N1C(=O)CCC1C(=O)NCc1ccco1` (stereo not drawn), the activity change, positive = activation is -9.8%. Regarding `CC(=O)Nc1cccc(-c2csc(Nc3ccc(Cl)cn3)n2)c1`, the Potency was active: 11.2 µM. Still for that read-out and setting: with `CCn1c(=NC(=O)c2ccco2)sc2cccc(F)c21` the figure was active: 15.8 µM. Still for that read-out and setting: with `Cc1ccc2oc(-c3cccc(NC(=O)/C=C/c4cccc([N+](=O)[O-])c4)c3C)nc2c1` the figure was active: 12.6 µM. In the case of `NS(=O)(=O)c1ccc(CCNC(=O)c2ccc(C#CC3(O)CCCCC3)cc2)cc1`, the “activity change, positive = activation” value is inactive: -54.3%. For the molecule `CC1CC(C)(C)Nc2ccc(OC(=O)c3ccco3)cc21` (stereo not drawn), the activity change, positive = activation was -77.5%.

Turning to `COc1ccc(N2CCN(C(=O)c3ccc(NS(=O)(=O)c4ccc(F)cc4)cc3)CC2)cc1`, the activity change, positive = activation is -36.7%.

`C/C(=N\NC(=O)Cc1cccc2ccccc12)c1ccncc1`: the “activity change, positive = activation” value was inactive: -34.5%. Same read-out and setting: for `CCOC(=O)C1=C(C)Nc2ncnn2C1c1ccc2c(c1)OCO2` (stereo not drawn) the value was 23.5%. Consider `Cc1ccc(-c2cc(N)n(-c3ccccc3)n2)cc1`, for which the Potency is active: 11.2 µM. `CC(=O)Nc1sc2c(c1C#N)CC(C)(C)NC2(C)C`: the activity change, positive = activation stood at 47.2%.

As to `COc1ccc2[nH]cc(CCNC(=O)Nc3cc(C)cc(C)c3)c2c1`, the activity change, positive = activation was found to be 35.3%. Still for that read-out and setting: for `CCC(=O)Nc1ccc(/C(C)=N/NC(=O)c2c(-c3ccccc3Cl)noc2C)cc1` the value was 27.8%. On the same count and under the same terms, with `CCOc1ccc(NS(=O)(=O)c2ccc(OCC(=O)N3CCCC3)cc2)cc1` the figure was 30.7%. Consider `COc1ccc(C(=O)NCCSC2CCCCC2)cc1`, for which the Potency was active: 15.8 µM. Turning to `O=[N+]([O-])c1cc(/C=N/Nc2nc3ccccc3[nH]2)c(O)cc1O`, the “activity change, positive = activation” value is inactive: -65.2%. Same read-out and setting: with `Nc1c(Cl)ncnc1N/N=C/c1ccccn1` the figure was inactive: -81.4%; with `Cc1nc([N+](=O)[O-])c(Br)n1CC(=O)c1ccccc1`, 37%. The same measure, in the same setting: with `CC1(C)N(O)CC(c2cccs2)=[N+]1[O-]` the figure was 32.8%; with `O=C(Nc1ccc(Cl)c(S(=O)(=O)N2CCOCC2)c1)c1cn2ccccc2n1`, inactive: -49.6%.

In the case of `CCCOC(=O)c1ccc(Oc2c(-c3ccc(OCC)cc3O)n[nH]c2C)cc1`, the activity change, positive = activation was -78.1%. For the molecule `c1ccc2cc(-c3cc4ccccn4c3)ccc2c1`, the Potency was active: 11.2 µM. On the same count and under the same terms, with `CC1=C(/C=C/C(C)=C/C=C/C(C)=C/C(=O)Nc2ccc(O)cc2)C(C)(C)CCC1` the entry was “inactive”. In the case of `Cc1ccc(NS(=O)(=O)c2c(C)nc3sccn3c2=O)c(Cl)c1`, the activity change, positive = activation was found to be 30.5%. `O=S(=O)(c1cnc[nH]1)N1CCc2ccccc21`: the activity change, positive = activation was 47%. The same measure, in the same setting: for `COc1ccc(OC)c(NC(=O)C2CCN(S(C)(=O)=O)CC2)c1` the value was 31.1%; for `O=C(NNC(=O)c1cccc(-n2cnnn2)c1)c1ccccc1`, inactive: -3.04%. Same read-out and setting: with `CCCCOc1ccc(S(=O)(=O)NNC(=O)c2cc3ccccc3o2)cc1` the figure was -61.8%; with `CCN(CC)S(=O)(=O)c1ccc2c(c1)C(=NO)c1cc(S(=O)(=O)N(CC)CC)ccc1-2`, inactive: -92.1%.

With `CCCn1c(=O)c2sccc2n2c(CCCC(=O)Nc3ccc(Oc4ccc(Cl)cc4)cc3)nnc12`, the activity change, positive = activation was found to be 47.9%. On to `COc1ccc(C(=O)/C=C\N2CCOCC2)cc1`, for which the activity change, positive = activation worked out at 46.1%. Take `CC(=O)c1oc2ccccc2c1NC(=O)CN1CCCCC1`: the “activity change, positive = activation” value was inactive: -33.4%. Consider `CSCCC(NC(=O)c1ccccc1)C(=O)NC1CCCC1` (stereo not drawn), for which the activity change, positive = activation was 81.1%.

`CC(C)(C)n1nnnc1CN1CCN(C(c2ccccc2)c2ccccc2)CC1`: the activity change, positive = activation was -113%.

With `O=C1NC(Nc2ccccn2)(C(F)(F)F)C(=O)N1c1ccc(F)cc1` (stereo not drawn), the activity change, positive = activation was 31.6%. For the molecule `COc1ccc(N(C)S(=O)(=O)c2ccc3c(c2)oc(=O)n3C)cc1`, the activity change, positive = activation was 43.9%. Still for that read-out and setting: with `O=C(COc1ccc(Cl)cc1)Nc1ccc2oc(-c3ccncc3)nc2c1` the figure was 34.2%; with `CN(Cc1cccs1)C(=O)CSc1nc2ccccc2[nH]1`, 31.3%. The same measure, in the same setting: with `Cc1ccc(NC(=O)c2ccccc2NC(=O)CCC(=O)O)cc1` the figure was 62.5%; with `COCCn1c(=O)c(CCc2ccccc2)nc2cnc(Oc3cccc(Cl)c3)nc21`, inactive: -45.3%.

Regarding `CCOC(=O)/C(=C\C=C1/Sc2cc(OCC)c(OCC)cc2N1CC)C(C)=O`, the “activity change, positive = activation” value was inactive: -46.8%. For the molecule `COC(=O)c1cc2nc(-c3ccccc3)cc(C)n2n1`, the activity change, positive = activation is 16.6%. Same read-out and setting: for `CCN(CC)c1ccc(/C=C2\C(=O)c3ccc(C(=O)O)cc3C2=O)cc1` the value was inactive: -8.86%; for `CCN(c1ccccc1)S(=O)(=O)c1ccc(Cl)c(C(=O)O)c1`, 33.4%. Consider `S=C(NCCc1ccccc1)Nc1cccc2cnccc12`, for which the “activity change, positive = activation” value is inactive: -59.3%.
